Results published in article doi:10.1101/2025.05.13.653872.
These are yes or no findings as the source states them, for the method shown. Binding seen in cells or lysates may run through a third protein. These calls come from enrichment with a bait or labelling near it, and not all partners need be listed.

By UniProt entry, the sequences of proteins in these tests, tags left out.
UniProt P48372: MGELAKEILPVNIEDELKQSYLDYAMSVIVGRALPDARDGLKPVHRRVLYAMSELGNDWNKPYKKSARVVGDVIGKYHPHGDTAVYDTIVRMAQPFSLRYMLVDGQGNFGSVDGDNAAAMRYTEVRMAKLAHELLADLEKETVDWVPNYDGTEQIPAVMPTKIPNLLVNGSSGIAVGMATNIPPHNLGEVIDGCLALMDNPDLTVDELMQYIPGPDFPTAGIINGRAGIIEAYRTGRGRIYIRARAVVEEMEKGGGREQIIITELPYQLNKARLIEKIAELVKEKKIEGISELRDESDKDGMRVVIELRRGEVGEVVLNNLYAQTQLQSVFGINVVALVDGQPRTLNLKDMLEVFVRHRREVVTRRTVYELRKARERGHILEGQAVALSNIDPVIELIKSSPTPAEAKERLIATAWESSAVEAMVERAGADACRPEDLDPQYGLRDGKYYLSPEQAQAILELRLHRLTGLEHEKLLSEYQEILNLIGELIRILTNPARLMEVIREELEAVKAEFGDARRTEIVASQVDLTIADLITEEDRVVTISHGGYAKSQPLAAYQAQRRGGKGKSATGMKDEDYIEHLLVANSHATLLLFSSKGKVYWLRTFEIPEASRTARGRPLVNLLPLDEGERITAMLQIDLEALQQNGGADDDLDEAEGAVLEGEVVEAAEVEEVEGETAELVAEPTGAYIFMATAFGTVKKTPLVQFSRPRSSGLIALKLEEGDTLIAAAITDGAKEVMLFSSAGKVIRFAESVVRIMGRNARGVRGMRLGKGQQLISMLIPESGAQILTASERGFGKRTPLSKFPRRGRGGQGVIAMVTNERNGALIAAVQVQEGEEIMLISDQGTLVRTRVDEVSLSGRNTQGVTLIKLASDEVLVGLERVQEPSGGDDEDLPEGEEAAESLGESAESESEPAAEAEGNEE

Tests used:
[1] = biological target: 6xHis-PcrP overexpressed in P. aeruginosa ΔpcrP (P. aeruginosa PAO1) (UniProt Q9I040); test: affinity purification with mass spectrometry; 6xHis-PcrP overexpressed in ΔpcrP grown in BMM8 at 0 or 5 mM Ca2+; lysate (1 mg/ml) on HisPur Ni-NTA resin, 2 h at 4°C, washed with 10 mM Tris-HCl pH 7.5; LC-MS/MS; ΔpcrP as negative control
[2] = biological target: 3xFlag-PcrP overexpressed in P. aeruginosa ΔpcrP (P. aeruginosa PAO1) (UniProt Q9I040); test: affinity purification with mass spectrometry; 3xFlag-PcrP overexpressed in ΔpcrP grown in BMM8 (high Pi, 580 μM) or BMMH8 (low Pi, 50 μM) at 0 or 5 mM Ca2+; lysate (1 mg/ml) on ANTI-FLAG M2 magnetic beads, 2 h at 4°C, washed with 10 mM Tris-HCl pH 7.5; LC-MS/MS; ΔpcrP as negative control

Row | Substance | binding [1] | binding [2]
1 | HsiB2 (PA1657) (from UniProt Q9I368) | binds | binds
2 | PA4241 30S ribosomal protein S13 (from UniProt Q9HWF7 1-118) |  | binds
3 | Acp3 (acyl carrier protein 3, PA3334) (from UniProt Q9HYR1) | binds | binds
4 | PA2978 protein phosphatase (from UniProt Q9HZM6) | binds | binds
5 | PA4941 protease subunit HflC (from UniProt Q9HUM3) | binds | binds
6 | PA3168 DNA gyrase subunit A (from UniProt P48372 1-923) |  | binds
